1 substance from PMC4707031 can be followed below.

Chains of the proteins cited; added tags and fusions are not shown.
UniProt P49674: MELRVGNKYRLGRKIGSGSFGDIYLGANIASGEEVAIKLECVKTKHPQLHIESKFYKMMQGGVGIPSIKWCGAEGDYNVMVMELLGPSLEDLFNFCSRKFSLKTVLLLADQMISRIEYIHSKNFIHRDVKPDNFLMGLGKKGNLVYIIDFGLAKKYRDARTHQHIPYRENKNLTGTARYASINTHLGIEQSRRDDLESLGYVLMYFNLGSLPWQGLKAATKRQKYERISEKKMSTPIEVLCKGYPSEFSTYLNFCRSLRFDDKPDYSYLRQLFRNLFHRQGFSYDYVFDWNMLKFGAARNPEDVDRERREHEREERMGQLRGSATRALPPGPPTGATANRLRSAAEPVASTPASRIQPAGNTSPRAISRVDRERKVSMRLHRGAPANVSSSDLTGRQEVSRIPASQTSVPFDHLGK

Experiment in all cases: co-IP; FLAG-tagged FAM83H construct and Myc-tagged partner co-expressed in HEK293 cells; NP40 lysate; anti-FLAG antibody on protein A Dynabeads, 30 min at room temperature, washed twice; immunoblot with anti-Myc (or anti-CK1ε)
The target of test [1] is T1, N-terminal FLAG-tagged mouse FAM83H^288-1209 (pCMV-Tag2B-Fam83h^288-1209) (mouse) (UniProt Q148V8).
T1 sequence: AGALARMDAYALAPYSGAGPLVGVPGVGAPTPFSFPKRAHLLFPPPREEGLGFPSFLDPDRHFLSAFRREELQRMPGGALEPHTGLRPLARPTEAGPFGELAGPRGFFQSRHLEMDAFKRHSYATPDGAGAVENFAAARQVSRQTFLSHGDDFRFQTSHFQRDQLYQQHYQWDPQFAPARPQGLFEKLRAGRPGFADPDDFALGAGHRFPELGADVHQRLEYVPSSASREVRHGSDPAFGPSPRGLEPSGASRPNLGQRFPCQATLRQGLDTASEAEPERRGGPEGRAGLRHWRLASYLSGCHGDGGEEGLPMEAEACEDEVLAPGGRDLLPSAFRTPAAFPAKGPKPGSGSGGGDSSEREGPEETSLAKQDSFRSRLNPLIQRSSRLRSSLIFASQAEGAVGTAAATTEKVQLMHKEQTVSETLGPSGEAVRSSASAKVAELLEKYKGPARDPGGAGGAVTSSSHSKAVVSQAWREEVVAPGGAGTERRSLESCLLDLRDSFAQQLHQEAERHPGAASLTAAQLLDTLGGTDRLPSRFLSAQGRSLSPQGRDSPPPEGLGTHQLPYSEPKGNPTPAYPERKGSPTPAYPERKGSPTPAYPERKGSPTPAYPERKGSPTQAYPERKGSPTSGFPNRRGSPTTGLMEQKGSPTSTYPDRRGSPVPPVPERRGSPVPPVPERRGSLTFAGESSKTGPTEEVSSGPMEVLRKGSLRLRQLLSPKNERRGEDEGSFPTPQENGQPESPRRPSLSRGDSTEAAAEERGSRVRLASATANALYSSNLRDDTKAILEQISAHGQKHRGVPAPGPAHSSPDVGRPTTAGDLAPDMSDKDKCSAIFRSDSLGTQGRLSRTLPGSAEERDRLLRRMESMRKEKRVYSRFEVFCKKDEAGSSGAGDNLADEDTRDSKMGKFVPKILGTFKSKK

The target in test [2] is T2, N-terminal FLAG-tagged mouse FAM83H^698-1209 (pCMV-Tag2B-Fam83h^698-1209) (mouse) (UniProt Q148V8).
T2 sequence: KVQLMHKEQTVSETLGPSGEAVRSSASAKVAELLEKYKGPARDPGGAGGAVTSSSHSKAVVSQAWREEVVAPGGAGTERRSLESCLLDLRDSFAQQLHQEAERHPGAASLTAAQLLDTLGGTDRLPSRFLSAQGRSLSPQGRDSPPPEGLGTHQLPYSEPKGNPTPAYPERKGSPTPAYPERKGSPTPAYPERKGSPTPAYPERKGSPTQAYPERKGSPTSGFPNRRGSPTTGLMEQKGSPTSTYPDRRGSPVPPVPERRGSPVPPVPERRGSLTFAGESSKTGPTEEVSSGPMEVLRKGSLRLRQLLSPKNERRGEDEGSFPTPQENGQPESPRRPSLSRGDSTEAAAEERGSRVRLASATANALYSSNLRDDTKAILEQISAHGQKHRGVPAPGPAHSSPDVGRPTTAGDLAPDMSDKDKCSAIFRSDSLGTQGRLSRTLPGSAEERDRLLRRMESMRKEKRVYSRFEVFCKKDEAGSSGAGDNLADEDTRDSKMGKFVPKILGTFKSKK

Test [3] concerns the target T3, N-terminal FLAG-tagged mouse FAM83H^1-697 (pCMV-Tag2B-Fam83h^1-697) (mouse) (UniProt Q148V8).
T3 sequence: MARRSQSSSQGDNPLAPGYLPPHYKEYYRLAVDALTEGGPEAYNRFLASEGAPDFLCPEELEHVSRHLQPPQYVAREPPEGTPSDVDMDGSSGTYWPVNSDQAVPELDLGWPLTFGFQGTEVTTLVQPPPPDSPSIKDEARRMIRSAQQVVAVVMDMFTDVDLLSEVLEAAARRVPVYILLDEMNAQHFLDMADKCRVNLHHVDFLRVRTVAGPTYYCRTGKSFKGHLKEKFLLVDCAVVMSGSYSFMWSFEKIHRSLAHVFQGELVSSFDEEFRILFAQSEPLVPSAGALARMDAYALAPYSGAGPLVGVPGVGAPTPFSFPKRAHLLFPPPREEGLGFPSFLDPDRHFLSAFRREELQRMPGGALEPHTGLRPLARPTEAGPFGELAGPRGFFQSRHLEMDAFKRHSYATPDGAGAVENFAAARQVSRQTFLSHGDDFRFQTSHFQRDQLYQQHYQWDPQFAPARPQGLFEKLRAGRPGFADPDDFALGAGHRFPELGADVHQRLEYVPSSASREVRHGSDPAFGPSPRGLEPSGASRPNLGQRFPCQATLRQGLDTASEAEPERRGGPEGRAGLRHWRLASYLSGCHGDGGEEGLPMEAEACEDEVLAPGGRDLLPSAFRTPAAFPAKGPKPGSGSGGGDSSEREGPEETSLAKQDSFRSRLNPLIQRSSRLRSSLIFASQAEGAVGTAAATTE

Test [4] concerns the target T4, N-terminal FLAG-tagged full-length mouse FAM83H (pCMV-Tag2B-Fam83h) (mouse) (UniProt Q148V8).
T4 sequence: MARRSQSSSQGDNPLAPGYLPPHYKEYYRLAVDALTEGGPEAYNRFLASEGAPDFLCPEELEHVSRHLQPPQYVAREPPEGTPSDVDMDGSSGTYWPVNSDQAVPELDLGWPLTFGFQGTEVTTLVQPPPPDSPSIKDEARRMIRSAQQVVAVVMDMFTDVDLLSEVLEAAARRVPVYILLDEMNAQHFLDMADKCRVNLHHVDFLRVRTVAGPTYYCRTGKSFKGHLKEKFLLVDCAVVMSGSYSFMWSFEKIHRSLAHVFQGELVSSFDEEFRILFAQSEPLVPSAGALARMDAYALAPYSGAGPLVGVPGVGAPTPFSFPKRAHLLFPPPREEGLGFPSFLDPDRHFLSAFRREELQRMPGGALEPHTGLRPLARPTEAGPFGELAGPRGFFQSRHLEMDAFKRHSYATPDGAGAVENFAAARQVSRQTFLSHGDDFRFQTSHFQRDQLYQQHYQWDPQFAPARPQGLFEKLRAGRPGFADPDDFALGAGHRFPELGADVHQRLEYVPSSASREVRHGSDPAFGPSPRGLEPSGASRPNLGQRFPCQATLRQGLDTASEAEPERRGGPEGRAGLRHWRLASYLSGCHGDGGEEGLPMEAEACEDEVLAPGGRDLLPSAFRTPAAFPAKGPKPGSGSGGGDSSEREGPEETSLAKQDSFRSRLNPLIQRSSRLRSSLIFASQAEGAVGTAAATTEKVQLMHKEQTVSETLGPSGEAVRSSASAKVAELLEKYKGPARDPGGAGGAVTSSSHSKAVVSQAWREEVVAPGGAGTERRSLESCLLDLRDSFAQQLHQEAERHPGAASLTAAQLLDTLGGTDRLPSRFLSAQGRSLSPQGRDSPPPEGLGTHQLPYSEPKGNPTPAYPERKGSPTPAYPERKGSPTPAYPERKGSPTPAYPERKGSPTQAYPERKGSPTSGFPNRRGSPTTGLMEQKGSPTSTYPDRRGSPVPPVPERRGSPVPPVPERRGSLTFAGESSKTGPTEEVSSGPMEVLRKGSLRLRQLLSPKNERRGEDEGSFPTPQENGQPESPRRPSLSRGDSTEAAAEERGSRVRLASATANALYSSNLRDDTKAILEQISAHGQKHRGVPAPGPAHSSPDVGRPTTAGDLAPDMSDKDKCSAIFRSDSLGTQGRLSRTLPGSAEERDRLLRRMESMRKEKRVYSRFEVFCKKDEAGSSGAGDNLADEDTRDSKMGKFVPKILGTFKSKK

No constants are given. Whether binding was seen depends on the method and setting. Binding seen in cells or lysates may run through a third protein. Some results given as binding are weak or reduced against the parent protein; the word gives no strength. Where a sequence is shown, tags or fusion partners need not be part of it.

For “6xMyc-tagged CK1ε (pcDNA3-CK1ε-6xMyc) (from UniProt P49674 1-416) (enzyme)”, the binding result in test [1] is recorded as “no binding”; in test [2], “no binding”; in test [3], “binds”; in test [4], “binds”.
